# Assay results reported in paper PMC8882189, “Identification of Nanog as a novel inhibitor of Rad51” (Cell Death & Disease, 2022).
# Amino acid sequences for entries named in this document (tags omitted).
# UniProt Q08297: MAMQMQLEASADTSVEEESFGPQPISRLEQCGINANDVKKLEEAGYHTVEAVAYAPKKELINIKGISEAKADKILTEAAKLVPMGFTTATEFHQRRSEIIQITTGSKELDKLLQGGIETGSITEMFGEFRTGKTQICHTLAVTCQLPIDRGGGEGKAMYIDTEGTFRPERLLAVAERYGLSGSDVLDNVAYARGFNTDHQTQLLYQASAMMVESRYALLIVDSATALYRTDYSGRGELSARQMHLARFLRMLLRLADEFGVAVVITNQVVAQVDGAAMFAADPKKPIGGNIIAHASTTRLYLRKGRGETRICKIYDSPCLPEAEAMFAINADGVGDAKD
# Results are given in words; binding and its absence hold for the method and conditions named. In cells and extracts the contact can be indirect. Some binding calls cover weakened binding; strength is not graded here.
# Target: T1, Nanog (endogenous, mouse ES cells) (mouse (endogenous in mouse ES cells)) (UniProt Q80Z64)
# T1 sequence: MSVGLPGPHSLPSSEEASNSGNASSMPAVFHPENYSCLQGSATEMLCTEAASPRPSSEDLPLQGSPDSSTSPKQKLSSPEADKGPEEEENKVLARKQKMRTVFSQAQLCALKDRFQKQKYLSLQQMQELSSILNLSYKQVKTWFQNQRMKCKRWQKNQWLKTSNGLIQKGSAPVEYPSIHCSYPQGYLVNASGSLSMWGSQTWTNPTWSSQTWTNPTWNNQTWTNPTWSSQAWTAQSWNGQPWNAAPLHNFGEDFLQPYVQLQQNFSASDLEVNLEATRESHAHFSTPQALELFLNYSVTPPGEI
# Experiment: co-IP; mouse ES cell whole cell extracts; IP with the antibody against Nanog or Rad51, western blot for Rad51 and Nanog respectively; Protein-G beads, 4 °C overnight, NP40 lysis buffer washes
substance,measurement,value
"Rad51 (endogenous, mouse ES cells) (from UniProt Q08297 1-339)",binding,binds
